Data as given in PubChem BioAssay AID743454 (Peter MacCallum Cancer Centre, 2014).
Assay: 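Search for knock-downs that restore vorinostat killing in resistant colon cancer cells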 (primary screen). Cell system: human HCT116-VR colon cancer cells, selected for vorinostat resistance. Knock-down reagent: siRNA pool against human genes, 40 nM siRNA pool. Timing: vorinostat for 24 h, read-out about 72 h after transfection. Treatment: vorinostat at 2.5 µM final. Detection: 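Two measures, CellTiter-Fluor viability and luminescent caspase 3/7 activity, each as fold change against same-plate mock wells, mean of duplicates, then screen-wide robust z-score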. Reading the numbers: viability robust z-score: higher = more viable cells than screen typical; caspase robust z-score: higher = more caspase 3/7 activity than screen typical. Call rule: 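a knock-down is a hit when classed RV1 or RV2 for lowered viability, or CA1 or CA2 for caspase activation; those lethal without drug were dropped; hits were retested singly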.
In all, the deposit lists about 18,000 reagents; below is a part drawn at random. 450 of them (2.5%) were called active. 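Single biological run; no consistent viability z cut-off exists, so the class columns, not z-scores, define the calls.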

| gene | viability hit class | caspase hit class | viability robust z-score | caspase robust z-score | outcome |
| --- | --- | --- | --- | --- | --- |
| RPL37 (ribosomal protein L37) | no change | no change | -3.73 | -1.02 | inactive |
| GRK7 (G protein-coupled receptor kinase 7) | no change | no change | -0.58 | -0.89 | inactive |
| PTCHD1 (patched domain containing 1) | no change | no change | -0.25 | 1.21 | inactive |
| FBXO17 (F-box protein 17) | no change | no change | -1.01 | 1.53 | inactive |
| MEOX2 (mesenchyme homeobox 2) | no change | no change | 0.65 | 0.02 | inactive |
| AMER1 (APC membrane recruitment protein 1) | no change | no change | -1.32 | 0.42 | inactive |
| PDZRN4 (PDZ domain containing ring finger 4) | no change | no change | -0.8 | 0.6 | inactive |
| CFAP221 (cilia and flagella associated protein 221) | no change | no change | 0.48 | -0.8 | inactive |
| STX16 (syntaxin 16) | no change | no change | 0.96 | -1.03 | inactive |
| ZNF322P1 (zinc finger protein 322 pseudogene 1) | no change | no change | -1.08 | 2.95 | inactive |
| CPA6 (carboxypeptidase A6) | no change | no change | 1.14 | -0.3 | inactive |
| CT45A5 (cancer/testis antigen family 45 member A5) | no change | no change | 0.44 | -0.62 | inactive |
| PRR34 (PRR34 long non-coding RNA) | no change | no change | -1.52 | -0.36 | inactive |
| OR2M4 (olfactory receptor family 2 subfamily M member 4) | no change | no change | 0.34 | -0.16 | inactive |
| CIAO2B (cytosolic iron-sulfur assembly component 2B) | no change | no change | -1.06 | -0.18 | inactive |
| PGLYRP2 (peptidoglycan recognition protein 2) | no change | no change | 0.36 | 0.18 | inactive |
| WDR46 (WD repeat domain 46) | no change | no change | -2.38 | -0.05 | inactive |
| FIZ1 (FLT3 interacting zinc finger 1) | no change | no change | 0.8 | 4.36 | inactive |
| UBTD2 (ubiquitin domain containing 2) | no change | no change | -1.27 | 2.24 | inactive |
| DDX6 (DEAD-box helicase 6) | no change | no change | -0.12 | -0.86 | inactive |
| MATCAP2 (microtubule associated tyrosine carboxypeptidase 2) | no change | no change | 0.2 | -0.3 | inactive |
| MYH14 (myosin heavy chain 14) | no change | no change | 0.52 | -0.16 | inactive |
| AHR (aryl hydrocarbon receptor) | no change | no change | -1.12 | 0.38 | inactive |
| DMRTA1 (DMRT like family A1) | no change | no change | -0.42 | 0.78 | inactive |
| LRTM2 (leucine rich repeat transmembrane protein 2) | no change | no change | 0.12 | 0.42 | inactive |
| APBA1 (amyloid beta precursor protein binding family A member 1) | no change | no change | 1.17 | -0.15 | inactive |
| ZBTB1 (zinc finger and BTB domain containing 1) | no change | no change | -1.99 | -1.02 | inactive |
| MCC (MCC regulator of Wnt signaling pathway) | no change | no change | 0.11 | 2.74 | inactive |
| TACC1 (transforming acidic coiled-coil containing protein 1) | no change | CA1 (caspase activation) | -1.15 | 7.63 | active |
| TRIM36 (tripartite motif containing 36) | no change | no change | 1.09 | 0.54 | inactive |
| MPPE1 (metallophosphoesterase 1) | no change | no change | 0.44 | 0.15 | inactive |
| ALPI (alkaline phosphatase, intestinal) | no change | no change | -0.74 | 4.08 | inactive |
| SERPIND1 (serpin family D member 1) | no change | no change | -0.81 | 2.09 | inactive |
| MAB21L3 (mab-21 like 3) | no change | no change | -0.13 | 1.15 | inactive |
| GALNT4 (polypeptide N-acetylgalactosaminyltransferase 4) | no change | no change | 1.77 | -0.5 | inactive |
| GNPNAT1 (glucosamine-phosphate N-acetyltransferase 1) | no change | no change | 0.37 | -0.3 | inactive |
| CASTOR1 (cytosolic arginine sensor for mTORC1 subunit 1) | no change | no change | 0.66 | -0.16 | inactive |
| MSMO1 (methylsterol monooxygenase 1) | no change | no change | -0.13 | -0.74 | inactive |
| TMX4 (thioredoxin related transmembrane protein 4) | no change | no change | 0.7 | -0.06 | inactive |

Reagents listed above with an active call:
| gene | viability hit class | caspase hit class | viability robust z-score | caspase robust z-score | outcome |
| --- | --- | --- | --- | --- | --- |
| TACC1 (transforming acidic coiled-coil containing protein 1) | no change | CA1 (caspase activation) | -1.15 | 7.63 | active |
